These are yes or no findings as the source states them, for the method shown. Binding seen in cells or lysates may run through a third protein. Some binding calls cover weakened binding; strength is not graded here. Sequences can lack the tags named with a protein.
Biological target: T1, TACI-1 with an N-terminal FLAG tag (human) (UniProt O14836)
T1 sequence: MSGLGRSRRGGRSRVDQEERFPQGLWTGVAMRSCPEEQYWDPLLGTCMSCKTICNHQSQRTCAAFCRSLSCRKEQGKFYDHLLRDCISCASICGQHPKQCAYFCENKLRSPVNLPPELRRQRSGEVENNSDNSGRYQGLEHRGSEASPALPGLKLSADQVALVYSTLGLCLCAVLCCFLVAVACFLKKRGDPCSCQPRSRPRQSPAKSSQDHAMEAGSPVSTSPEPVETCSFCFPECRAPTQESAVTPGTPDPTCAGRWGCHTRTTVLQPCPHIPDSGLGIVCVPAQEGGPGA
Experiment: co-immunoprecipitation from 293T lysates with anti-FLAG agarose, Western blot with anti-CAML

Protein sequences, listed by entry. Tags and fused reporters are not part of them.
UniProt P49069: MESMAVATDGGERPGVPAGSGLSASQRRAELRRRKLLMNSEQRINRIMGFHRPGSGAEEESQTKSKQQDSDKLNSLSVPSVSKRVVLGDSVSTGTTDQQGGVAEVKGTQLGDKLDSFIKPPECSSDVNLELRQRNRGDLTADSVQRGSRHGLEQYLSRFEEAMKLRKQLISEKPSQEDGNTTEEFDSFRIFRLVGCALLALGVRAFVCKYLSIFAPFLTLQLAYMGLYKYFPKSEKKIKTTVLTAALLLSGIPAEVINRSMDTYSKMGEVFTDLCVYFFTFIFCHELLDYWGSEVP

binding: binds
Substance: calcium-signal modulating cyclophilin ligand (CAML), human, full length (from UniProt P49069 1-296)
